Measurements published in patent US20240199757A1.
Changes are numbered by the printed parent chain. No constants are given. Whether binding was seen depends on the method and setting. Some binding calls cover weakened binding; strength is not graded here.

How the values were obtained:
[1] = target: T1, Full-length cynomolgus NT5E (recombinant) (cynomolgus); assay: ELISA
T1 sequence: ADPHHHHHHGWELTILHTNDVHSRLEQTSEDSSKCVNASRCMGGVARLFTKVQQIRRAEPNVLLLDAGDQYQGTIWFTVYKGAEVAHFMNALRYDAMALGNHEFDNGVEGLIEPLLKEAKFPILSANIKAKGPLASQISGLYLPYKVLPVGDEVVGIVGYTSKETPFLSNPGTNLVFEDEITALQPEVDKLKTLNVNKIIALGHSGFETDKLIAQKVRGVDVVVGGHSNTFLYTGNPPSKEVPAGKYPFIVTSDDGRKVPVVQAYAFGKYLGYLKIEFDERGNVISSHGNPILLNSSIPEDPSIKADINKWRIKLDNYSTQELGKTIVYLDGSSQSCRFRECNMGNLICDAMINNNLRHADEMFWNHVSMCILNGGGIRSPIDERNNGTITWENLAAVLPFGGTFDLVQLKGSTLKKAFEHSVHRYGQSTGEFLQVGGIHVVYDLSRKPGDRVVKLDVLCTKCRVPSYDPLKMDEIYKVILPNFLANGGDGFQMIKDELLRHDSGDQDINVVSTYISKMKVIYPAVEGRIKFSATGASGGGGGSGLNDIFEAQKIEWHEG

[2] = target: T2, Full-length human NT5E (recombinant, in-house) (human) (UniProt P21589); assay: ELISA
T2 sequence: T1 sequence with T209M, M363T, I476V

[3] = target: T3, Full-length murine NT5E (recombinant) (murine) (UniProt Q61503); assay: ELISA
T3 sequence: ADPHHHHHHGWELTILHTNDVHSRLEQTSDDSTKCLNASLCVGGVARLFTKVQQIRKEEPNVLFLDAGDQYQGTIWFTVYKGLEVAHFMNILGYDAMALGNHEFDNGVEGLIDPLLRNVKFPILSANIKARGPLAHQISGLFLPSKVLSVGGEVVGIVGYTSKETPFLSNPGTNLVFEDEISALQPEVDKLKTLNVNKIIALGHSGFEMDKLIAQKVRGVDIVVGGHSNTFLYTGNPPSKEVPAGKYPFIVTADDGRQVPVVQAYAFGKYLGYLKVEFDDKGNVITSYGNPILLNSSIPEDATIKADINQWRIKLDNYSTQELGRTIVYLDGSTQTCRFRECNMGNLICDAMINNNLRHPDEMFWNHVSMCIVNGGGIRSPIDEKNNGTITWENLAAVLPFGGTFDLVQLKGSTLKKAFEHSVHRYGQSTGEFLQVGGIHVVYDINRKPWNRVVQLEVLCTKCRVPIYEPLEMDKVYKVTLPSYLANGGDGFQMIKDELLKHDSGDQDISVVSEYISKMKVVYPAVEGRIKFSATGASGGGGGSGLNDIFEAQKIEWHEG

[4] = target: T4, murine NT5E expressed on 4T1 cells (murine) (UniProt Q61503); assay: flow cytometry on 4T1 cells, ATP-free
T4 sequence (looked up): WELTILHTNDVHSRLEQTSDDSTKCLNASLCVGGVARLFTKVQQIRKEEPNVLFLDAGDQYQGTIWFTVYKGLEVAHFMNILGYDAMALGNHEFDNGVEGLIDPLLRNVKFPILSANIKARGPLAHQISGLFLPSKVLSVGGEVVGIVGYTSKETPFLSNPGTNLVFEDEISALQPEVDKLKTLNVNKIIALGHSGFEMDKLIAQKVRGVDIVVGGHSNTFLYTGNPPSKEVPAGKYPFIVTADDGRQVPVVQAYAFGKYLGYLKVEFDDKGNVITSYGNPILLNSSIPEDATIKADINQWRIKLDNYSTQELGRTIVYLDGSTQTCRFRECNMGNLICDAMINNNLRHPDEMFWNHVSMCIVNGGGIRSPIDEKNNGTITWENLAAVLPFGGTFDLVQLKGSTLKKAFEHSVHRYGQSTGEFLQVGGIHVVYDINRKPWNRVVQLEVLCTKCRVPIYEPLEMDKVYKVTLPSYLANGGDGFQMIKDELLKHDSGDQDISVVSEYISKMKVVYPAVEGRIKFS

[5] = target: T3, Full-length murine NT5E (recombinant) (murine); assay: ELISA on immobilized murine NT5E, no ATP
[6] = target: T5, human NT5E expressed on MDA-MB-231 cells (human) (UniProt P21589); assay: flow cytometry on MDA-MB-231 cells, ATP-free
T5 sequence (looked up): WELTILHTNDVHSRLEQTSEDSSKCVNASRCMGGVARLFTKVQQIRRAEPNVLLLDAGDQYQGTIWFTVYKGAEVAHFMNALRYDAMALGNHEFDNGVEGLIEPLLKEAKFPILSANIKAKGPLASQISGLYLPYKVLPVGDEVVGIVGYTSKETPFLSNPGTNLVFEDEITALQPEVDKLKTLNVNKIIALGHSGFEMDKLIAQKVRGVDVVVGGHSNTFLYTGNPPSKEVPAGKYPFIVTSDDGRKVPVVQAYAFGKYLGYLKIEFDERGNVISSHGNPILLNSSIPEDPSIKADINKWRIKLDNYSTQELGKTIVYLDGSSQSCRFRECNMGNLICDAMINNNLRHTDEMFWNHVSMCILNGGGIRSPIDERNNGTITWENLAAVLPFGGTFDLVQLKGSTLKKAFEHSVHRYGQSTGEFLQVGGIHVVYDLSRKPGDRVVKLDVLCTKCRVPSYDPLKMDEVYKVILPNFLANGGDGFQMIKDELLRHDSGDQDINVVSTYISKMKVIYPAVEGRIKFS

[7] = target: T5, human NT5E expressed on MDA-MB-231 cells (human); assay: flow cytometry on MDA-MB-231 cells, ATP-free vs 1 mM ATP
[8] = target: T4, murine NT5E expressed on 4T1 cells (murine); assay: flow cytometry on 4T1 cells, single IgG concentration 100 nM, +ATP
[9] = target: T4, murine NT5E expressed on 4T1 cells (murine); assay: flow cytometry on 4T1 cells, single IgG concentration 100 nM, -ATP

Measured: binding

B1: 1789 IgG (antibody, V domains shown)
VH: EVQLVESGGGLVQPGGSLRLSCAASGFNVSYSSIHWVRQAPGKGLEWVASISSSSGYTYYADSVKGRFTISADTSKNTAYLQMNSLRAEDTAVYYCARNYWGWYPFYYFAFDYWGQGTLVTVSS
VL: DIQMTQSPSSLSASVGDRVTITCRASQSVSSAVAWYQQKPGKAPKLLIYSASSLYSGVPSRFSGSRSGTDFTLTISSLQPEDFATYYCQQGWDYPITFGQGTKVEIKR
not listed: [8] | [9]
binds: all other assays above

B2: 1780 IgG (antibody, V domains shown)
VH: EVQLVESGGGLVQPGGSLRLSCAASGFNFYSYSIHWVRQAPGKGLEWVASISSSSGYTYYADSVKGRFTISADTSKNTAYLQMNSLRAEDTAVYYCARYSWWGWHMEGWWGYMNAFDYWGQGTLVTVSS
VL: B1 VL with G91A, W92H, D93P, Y94K
binds: [8] | [9]
